Results are given in words; binding and its absence hold for the method and conditions named. Some binding calls cover weakened binding; strength is not graded here.
What was measured:
[1] = molecular target: CD47 on human red blood cells (human) (UniProt Q08722); test: RBC binding assay (legend of FIG. 25)
[2] = molecular target: CD47 on human red blood cells (human) (UniProt Q08722); test: RBC binding assay (FIG. 25)
[3] = molecular target: human CD47 on Raji cells (human) (UniProt Q08722); test: flow cytometry on Raji cells (legend of FIG. 21)
[4] = molecular target: recombinant CD47-ECD (34C5 ELISA) (human) (UniProt Q08722); test: ELISA (legend of FIG. 20)

Sequences of proteins named here, by UniProt entry; tags and fusion partners are left off. A change or cut given only in a name is not applied to a line headed by its entry. Residues count along the entry.
UniProt Q08722: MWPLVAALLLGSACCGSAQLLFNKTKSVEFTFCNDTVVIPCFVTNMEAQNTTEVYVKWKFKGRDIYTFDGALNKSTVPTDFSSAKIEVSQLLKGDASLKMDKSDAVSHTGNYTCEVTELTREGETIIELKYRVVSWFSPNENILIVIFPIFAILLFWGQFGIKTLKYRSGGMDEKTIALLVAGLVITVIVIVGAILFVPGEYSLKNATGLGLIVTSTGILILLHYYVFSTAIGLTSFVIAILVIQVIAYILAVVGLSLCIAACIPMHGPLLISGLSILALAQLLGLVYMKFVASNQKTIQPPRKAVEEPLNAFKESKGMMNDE
human CD47 on Raji cells: residues 19-323 of Q08722
recombinant CD47-ECD (34C5 ELISA): residues 19-139 of Q08722

- binding [1]: binds
- binding [2]: binds
- binding [3]: binds
- binding [4]: binds
B1: CD47 antibody 34C5 (antibody, V domains shown)
VH: QVQLVQSGAEVKKPGSSVKVSCKASGYTFSSYYMHWVRQAPGQGLEWMGEINPNNARINFNEKFKTRVTLTVDKSTSTAYMELSSLRSEDTAVYYCTRGYYRYGAWFGYWGQGTLVTVSS
VL: DIQMTQSPSSLSASVGDRVTITCRASQDISDYLNWYQQKPGKAPKLLIYYISRLHSGVPSRFSGSGSGTDYTLTISSLQPEDFATYYCQQGHTLPWTFGGGTKVEIK

Reference: US20210054093A1
